Reference: article PMC3173395, “Characterization of the latent membrane protein 1 signaling complex of Epstein-Barr virus in the membrane of mammalian cells with bimolecular fluorescence complementation” (Virology Journal, 2011)
No constants are given. Whether binding was seen depends on the method and setting. Binding seen in cells or lysates may run through a third protein. Some binding calls cover weakened binding; strength is not graded here. For some assays here: Sequences can lack the tags named with a protein.

What was measured:
[1] = molecular target: LMP1-NYFP (full-length latent membrane protein 1 fused to NYFP at the C-terminus of LMP1) (Epstein-Barr virus, B95-8 strain) (UniProt P03230); experiment: split reporter; BiFC (Venus YFP fragments) in HEK-293T cells co-transfected with both plasmids and pmCherry; fixed 24 hours post-transfection; fluorescence and confocal microscopy
[2] = molecular target: NYFP-CTAR1/2 (amino-terminus of YFP fused to the cytoplasmic domain of LMP1, amino acids 184-386) (Epstein-Barr virus, B95-8 strain) (UniProt P03230); experiment: as above
[3] = molecular target: 1-231-NYFP (LMP1 amino acids 1 through 231, deleted for CTAR2, NYFP at the C-terminus) (Epstein-Barr virus, B95-8 strain) (UniProt P03230); experiment: split reporter; BiFC in HEK-293T cells co-transfected with pmCherry; 48 hours post-transfection; flow cytometry, mean fluorescent intensity of YFP of 1 x 10^4 mCherry positive cells (Figure 2A)
[4] = molecular target: LMP1-NYFP (full-length latent membrane protein 1 fused to NYFP at the C-terminus of LMP1) (Epstein-Barr virus, B95-8 strain) (UniProt P03230); experiment: as above
[5] = molecular target: 1-231-NYFP (LMP1 amino acids 1 through 231, deleted for CTAR2, NYFP at the C-terminus) (Epstein-Barr virus, B95-8 strain) (UniProt P03230); experiment: split reporter; BiFC in HEK-293T cells with the same amount of mCherry tracer plasmid but ten-fold less BiFC plasmids; flow cytometry, YFP histograms of 1 x 10^4 mCherry positive cells (Figures 3 and 5A)
[6] = molecular target: LMP1-NYFP (full-length latent membrane protein 1 fused to NYFP at the C-terminus of LMP1) (Epstein-Barr virus, B95-8 strain) (UniProt P03230); experiment: as above
[7] = molecular target: LMP1-NYFP (full-length latent membrane protein 1 fused to NYFP at the C-terminus of LMP1) (Epstein-Barr virus, B95-8 strain) (UniProt P03230); experiment: split reporter; BiFC by flow cytometry of the HEK-293T cells of the NF-kB reporter assay (co-transfected with pRL-SV40 and pNF-kB-Luc), Figure 5D
[8] = molecular target: NYFP-CTAR1/2 (amino-terminus of YFP fused to the cytoplasmic domain of LMP1, amino acids 184-386) (Epstein-Barr virus, B95-8 strain) (UniProt P03230); experiment: split reporter; data not shown: BiFC by fluorescence microscopy in HEK-293T cells, NYFP-CTAR1/2 with TRAFs tagged at their carboxyl-termini
[9] = molecular target: 1-231-NYFP (LMP1 amino acids 1 through 231, deleted for CTAR2, NYFP at the C-terminus) (Epstein-Barr virus, B95-8 strain) (UniProt P03230); experiment: split reporter; BiFC in HEK-293T cells with the same amount of mCherry tracer plasmid but ten-fold less BiFC plasmids; flow cytometry, YFP histograms of 1 x 10^4 mCherry positive cells (Figures 3 and 5A); remark: listed apart in the source
[10] = molecular target: LMP1-NYFP (full-length latent membrane protein 1 fused to NYFP at the C-terminus of LMP1) (Epstein-Barr virus, B95-8 strain) (UniProt P03230); experiment: as above; remark: listed apart in the source

Measured: binding

CYFP-TRAF2 (CYFP fused to the amino-terminus of TRAF2, amino acids 98-501) (from UniProt Q12933-1 98-501) (domain or fragment)
binds: [1] | [2] | [3] | [4] | [5] | [6]

LMP1-NYFP (full-length latent membrane protein 1 fused to NYFP at the C-terminus of LMP1) (from UniProt P03230 1-386)
binds: [7] | [1] | [6]

B1: CYFP-TRAF2 (CYFP fused to the amino-terminus of TRAF2, amino acids 98-501) (domain or fragment)
chain: REVESLPAVCPSDGCTWKGTLKEYESCHEGRCPLMLTECPACKGLVRLGEKERHLEHECPERSLSCRHCRAPCCGADVKAHHEVCPKFPLTCDGCGKKKIPREKFQDHVKTCGKCRVPCRFHAIGCLETVEGEKQQEHEVQWLREHLAMLLSSVLEAKPLLGDQSHAGSELLQRCESLEKKTATFENIVCVLNREVERVAMTAEACSRQHRLDQDKIEALSSKVQQLERSIGLKDLAMADLEQKVLEMEASTYDGVFIWKISDFARKRQEAVAGRIPAIFSPAFYTSRYGYKMCLRIYLNGDGTGRGTHLSLFFVVMKGPNDALLRWPFNQKVTLMLLDQNNREHVIDAFRPDVTSSSFQRPVNDMNIASGCPLFCPVSKMEAKNSYVRDDAIFIKAIVDLTGL
binds: [8]

B2: CYFP-TRAF3 (CYFP fused to the amino-terminus of TRAF3, amino acids 345-568) (domain or fragment, UniProt Q13114-1 345-568)
chain: EEADSMKSSVESLQNRVTELESVDKSAGQVARNTGLLESQLSRHDQMLSVHDIRLADMDLRFQVLETASYNGVLIWKIRDYKRRKQEAVMGKTLSLYSQPFYTGYFGYKMCARVYLNGDGMGKGTHLSLFFVIMRGEYDALLPWPFKQKVTLMLMDQGSSRRHLGDAFKPDPNSSSFKKPTGEMNIASGCPVFVAQTVLENGTYIKDDTIFIKVIVDTSDLPDP
binds: [1] | [2] | [3] | [4] | [9] | [10]

B3: TRAF3-CYFP (CYFP at the C-terminus of myc-tagged TRAF3, amino acids 345-568) (domain or fragment, UniProt Q13114-1 345-568)
chain: EEADSMKSSVESLQNRVTELESVDKSAGQVARNTGLLESQLSRHDQMLSVHDIRLADMDLRFQVLETASYNGVLIWKIRDYKRRKQEAVMGKTLSLYSQPFYTGYFGYKMCARVYLNGDGMGKGTHLSLFFVIMRGEYDALLPWPFKQKVTLMLMDQGSSRRHLGDAFKPDPNSSSFKKPTGEMNIASGCPVFVAQTVLENGTYIKDDTIFIKVIVDTSDLPDP
binds: [8]
